In all, about 580,000 compounds went through this assay and about 6,100 (1.1%) were called active. The shares of active, inactive and inconclusive entries below differ from those in the screen. Calls follow the shape of the dose curve; as a rule, active = well fitted inhibition curve with a large enough effect; inconclusive = small, poorly fitted or top-dose-only effect, or another doubt; inactive = no such curve, though single readings can be large or run the other way. Potencies beside an inconclusive call are fits to weak or partial responses and may not hold up.
The compounds below were run against Polyunsaturated fatty acid lipoxygenase ALOX12 (Homo sapiens) (UniProt P18054) (assay: Primary qHTS assay for inhibitors of human arachidonate 12S-lipoxygenase (ALOX12): Round 2). Settings: purified 12hLO, xylenol orange hydroperoxide absorbance; activity change, negative = inhibition: at 108 µM (top of the series) unless noted.
Method in brief: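 Purified human 12hLO at 150 nM in 25 mM Hepes, 0.01% Triton X-100, pH 7.0, preincubated 15 min at room temperature with compound. Reaction started with 40 uM arachidonic acid, 30 min at room temperature. Hydroperoxide measured by Fe-xylenol orange, 573/405 nm absorbance ratio.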
% is scaled to controls: 0 for no effect and ±100 for the full control effect; potency is read from the fitted curve at half-maximal effect.

Sequences of proteins named here, by UniProt entry; tags and fusion partners are left off. A change or cut given only in a name is not applied to a line headed by its entry.
UniProt P18054: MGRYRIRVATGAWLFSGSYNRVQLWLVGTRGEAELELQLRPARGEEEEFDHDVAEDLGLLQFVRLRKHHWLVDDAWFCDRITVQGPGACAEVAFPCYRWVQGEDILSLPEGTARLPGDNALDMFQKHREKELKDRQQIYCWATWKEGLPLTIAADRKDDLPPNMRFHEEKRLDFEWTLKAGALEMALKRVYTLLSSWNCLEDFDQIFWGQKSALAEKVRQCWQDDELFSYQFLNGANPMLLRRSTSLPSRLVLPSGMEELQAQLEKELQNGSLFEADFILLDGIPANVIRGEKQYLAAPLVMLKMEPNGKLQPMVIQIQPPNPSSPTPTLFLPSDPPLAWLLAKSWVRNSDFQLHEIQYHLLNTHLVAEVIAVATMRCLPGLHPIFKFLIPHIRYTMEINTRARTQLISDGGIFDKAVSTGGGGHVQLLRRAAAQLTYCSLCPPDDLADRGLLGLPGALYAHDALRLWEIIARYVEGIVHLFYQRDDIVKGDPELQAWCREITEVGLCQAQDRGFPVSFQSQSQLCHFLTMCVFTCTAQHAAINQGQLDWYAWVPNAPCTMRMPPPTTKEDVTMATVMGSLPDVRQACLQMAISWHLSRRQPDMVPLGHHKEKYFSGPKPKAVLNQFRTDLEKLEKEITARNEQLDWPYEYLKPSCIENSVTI

| SMILES | Potency | activity change, negative = inhibition |
| --- | --- | --- |
| CN1CCN(c2ccc(S(=O)(=O)N3CCCCC3)cc2NC(=O)/C=C/c2ccc(OC(F)F)cc2)CC1 | inconclusive: 44.7 µM [inhibitor, partial curve, poor fit] |  |
| Cc1ccc(S(=O)(=O)N2CCN(Cc3cccc(C)c3O)CC2)cc1 |  | inactive: 365% |
| Cn1nc(C(F)(F)F)c(-c2cccc(C(F)(F)F)c2)c1NC(=O)CSCC(=O)O |  | inactive: 0% |
| O=C(NCCc1ccccc1)C(=O)c1cn(CC(=O)N2CCCC2)c2ccccc12 | inconclusive: 158 µM [inhibitor, partial curve, poor fit] |  |
| COc1ccc(-c2cc(C(=O)N3CCN(c4ncccn4)CC3)c3ccccc3n2)cc1OC | inconclusive: 50.1 µM [inhibitor, partial curve, poor fit] |  |
| CC[C@H]1CN(C(=O)NC(C)C)CC[C@H]1CC(=O)NC1CC1 |  | inactive: 50.5% [at 176 µM] |
| NC(=O)c1ccsc1NC(=O)COC(=O)Cc1cccc2ccccc12 |  | inactive: -0.904% |
| N#C/C(=C\c1ccccc1)C(=O)NNS(=O)(=O)c1ccc(Br)cc1 | inconclusive: 39.8 µM [inhibitor, partial curve, poor fit] |  |
| COc1ccc([C@@H]2CC(=O)c3c(O)cc(O[C@@H]4O[C@H](CO)[C@@H](O)[C@H](O)[C@H]4OC4O[C@@H](C)[C@H](O)[C@@H](O)[C@H]4O)cc3O2)cc1O (stereo partly drawn) | inconclusive: 14.1 µM [inhibitor, single point] |  |
| O=C(CS(=O)(=O)c1ccccc1)N(CCCN1CCOCC1)c1nc2c(F)cccc2s1 | inconclusive: 28.2 µM [inhibitor, partial curve, poor fit] |  |
| CN(C)[C@@H]1C[C@H](Cn2cc(-c3cccnc3)nn2)[C@@H](O)[C@H]1O | inconclusive: 63.1 µM [inhibitor, partial curve] |  |
| CC(SC1CCCC1)C(=O)Nc1ccc(Cl)cc1Cl (stereo not drawn) |  | inactive: -0.691% |
| CN(CCOc1ccc(F)cc1)C(=O)c1cnc2ccccc2n1 |  | inactive: 2.71% |
| Cc1cccc(C(=O)NC(Nc2ccc(Br)cc2)C(Cl)(Cl)Cl)c1 (stereo not drawn) | inconclusive: 7.94 µM [inhibitor, partial curve, poor fit] |  |
| Cc1cccc(-n2nc(C)c(CCC(=O)NC3CC3)c2Oc2ccccc2C)c1 | inconclusive: 2.82 µM [inhibitor, full curve] |  |
| CC(C)Cc1nnc(NC(=O)C2CC(=O)N(c3n[nH]c4cccc(F)c34)C2)s1 (stereo not drawn) |  | inactive: 38% |
| O=C(Nc1ccccc1-c1nc2ccccc2[nH]1)c1ccc(S(=O)(=O)N2CCCCC2)cc1 |  | inactive: -24.4% |
| Cc1cccc(/C=N/NC(=O)C2CCCNC2=O)c1 (stereo not drawn) | inconclusive: 5.01 µM [inhibitor, full curve, poor fit] |  |
| COc1cc(-c2cc(C)c3cccc(OC)c3n2)cc2c1OCCN(C(=O)CCN)C2 | inconclusive: 10 µM [inhibitor, full curve, poor fit] |  |
| Oc1c(C(Nc2nc3ccccc3s2)c2ccco2)ccc2cccnc12 (stereo not drawn) | inconclusive: 22.4 µM [inhibitor, full curve, poor fit] |  |
| Cc1c(C#N)c(NC(=O)CSc2nnnn2CC2CCCO2)n(C2CCCC2)c1C (stereo not drawn) |  | inactive: -2.15% |
| CC1CCCN(CC2CCCCCN2)C1 (stereo not drawn) | inconclusive: 0.251 µM [inhibitor, full curve, poor fit] |  |
| CC(C)CC(=O)N/C(N)=N/c1nc2ccccc2o1 |  | inactive: 244% |

Arranged by SMILES length (rising): 3 of the compounds above

| SMILES | Potency | activity change, negative = inhibition |
| --- | --- | --- |
| CC(SC1CCCC1)C(=O)Nc1ccc(Cl)cc1Cl (stereo not drawn) |  | inactive: -0.691% |
| Cc1c(C#N)c(NC(=O)CSc2nnnn2CC2CCCO2)n(C2CCCC2)c1C (stereo not drawn) |  | inactive: -2.15% |
| CC(C)Cc1nnc(NC(=O)C2CC(=O)N(c3n[nH]c4cccc(F)c34)C2)s1 (stereo not drawn) |  | inactive: 38% |

Later entries

| SMILES | Potency | activity change, negative = inhibition |
| --- | --- | --- |
| CN(C)S(=O)(=O)c1cccc(NC(=O)CSc2nncn2-c2ccccc2)c1 |  | inactive: -5.89% |
| CNC(=O)c1cc(OCC(F)(F)F)ccc1OCC(F)(F)F |  | inactive: 6.09% |
| CNc1nc(OC)nc(N2CCOCC2)n1 |  | inactive: -14.6% |
| CCN(CC)CCN1C(=O)C(O)=C(C(=O)c2cc3cccc(OC)c3o2)C1c1ccc(F)cc1 (stereo not drawn) | inconclusive: 100 µM [inhibitor, single point] |  |
| Cc1ccc(C(=O)O)cc1NC(=S)NC(=O)c1ccc(-c2ccccc2)cc1 | active: 8.91 µM |  |
| COc1ccc(-c2csc(Nc3cc(C)ccn3)n2)cc1C | inconclusive: 15.8 µM [inhibitor, partial curve, poor fit] |  |
| COc1ccc(-c2nc3cc(C(C)C)ccc3o2)cc1NC(=O)c1ccc(C)c(Cl)c1 |  | inactive: -16.3% |
| Cc1cc(C)n(CCN(C)C(=O)CCc2nnc(-c3ccc4c(c3)OCO4)o2)n1 | inconclusive: 31.6 µM [inhibitor, partial curve, poor fit] |  |
| Cc1cccc(NC(=O)c2cc(-c3c(C)cc(C)cc3O)n[nH]2)c1 |  | inactive: 0% |
| COc1cccc(NC(=O)Nc2cccc(C(=O)O)c2)c1 |  | inactive: -4.15% |
| COC[C@H]1CCCN1[C@@H]1[C@H](O)[C@H](CO)O[C@@H]1CNCc1cccc(Cl)c1 |  | inactive: 20% |
| C[C@]1(CO)[C@H]2Cc3sc(NC(=O)c4ccco4)nc3[C@@H](CC(=O)NC3CC3)[C@]2(C)CC[C@H]1O | inconclusive: 31.6 µM [inhibitor, partial curve] |  |
| C=CCSC(=C(C#N)C#N)c1cc2c([nH]1)CCCC2 | inconclusive: 50.1 µM [inhibitor, single point] |  |
| N#CC1=C(N)Oc2c(c(=O)[nH]c3ccccc23)C1c1ccc(Br)cc1 (stereo not drawn) | inconclusive: 5.01 µM [inhibitor, full curve, poor fit] |  |
| CCn1nc(C(=O)OCC(=O)N2CCCC2)c2ccccc2c1=O |  | inactive: 24.8% |
| COc1ccc(C(=O)O)cc1S(=O)(=O)Nc1ccc2cn[nH]c2c1 | inconclusive: 7.08 µM [inhibitor, full curve, poor fit] |  |
| CC(=O)C1=C(O)C(=O)N(Cc2ccccc2)C1c1ccc(Br)cc1 (stereo not drawn) | active: 11.2 µM |  |
| CC(NC(=O)NCCNc1ncccn1)c1ccccn1 (stereo not drawn) |  | inactive: -11.5% |
| CCc1ccc(OCC(O)Cn2cnc3cc(Cl)ccc3c2=O)cc1 (stereo not drawn) |  | inactive: -4.8% |
| N#Cc1ccc(CSc2nnc(-c3c[nH]c4ccccc34)o2)cc1 |  | inactive: -0.117% |
| CCOC(=O)C1CCCN(S(=O)(=O)c2nc3nc(C)cc(C)n3n2)C1 (stereo not drawn) | inconclusive: 39.8 µM [inhibitor, single point] |  |
| CCCCCCc1cc2cc(S(=O)(=O)c3ccc(F)c(Cl)c3)c(=O)oc2cc1O |  | inactive: -14.2% |

| SMILES | Potency | activity change, negative = inhibition |
| --- | --- | --- |
| COc1ccc(N(C(C)C(=O)N/N=C/c2ccc(OCC(C)C)cc2)S(C)(=O)=O)cc1 (stereo not drawn) |  | inactive: 6.09% |
| Cc1ccc(S(=O)(=O)c2nnn3c2nc(N2CCOCC2)c2ccccc23)cc1C | inconclusive: 79.4 µM [inhibitor, partial curve, poor fit] |  |
| O=C1c2ccccc2NC(c2ccc(Cl)cc2Cl)N1O (stereo not drawn) | active: 10 µM |  |
| COCCSc1ccccc1C(=O)Nc1nncs1 | inconclusive: 70.8 µM [inhibitor, partial curve, poor fit] |  |
| COc1ccnc(N2CCC(CO)(Cc3ccccc3C(F)(F)F)CC2)n1 | inconclusive: 63.1 µM [inhibitor, partial curve, poor fit] |  |
| CC(C)c1ccc(NC(=O)c2ccc3c(c2)C(=O)N(Cc2cccnc2)C3=O)cc1 | inconclusive: 56.2 µM [inhibitor, partial curve, poor fit] |  |
| CC(=O)N1CCc2cc(CNS(=O)(=O)c3ccc(C(C)(C)C)cc3)ccc21 | inconclusive: 141 µM [inhibitor, partial curve, poor fit] |  |
| CC(Sc1cccc[n+]1[O-])C(=O)Nc1cccc2ccccc12 (stereo not drawn) | inconclusive: 39.8 µM [inhibitor, partial curve, poor fit] |  |
| Cc1ccccc1NC(=O)Cn1c(=O)n(CCC(=O)NCc2ccc3c(c2)OCO3)c(=O)c2sccc21 | inconclusive: 50.1 µM [inhibitor, partial curve, poor fit] |  |
| Fc1ccc(-c2ccnc(=S)[nH]2)cc1 | inconclusive: 56.2 µM [inhibitor, partial curve, poor fit] |  |
| CCOc1ccc(NC(=O)CSCc2cc(=O)n3ccccc3n2)cc1 | inconclusive: 7.08 µM [inhibitor, full curve] |  |
| N#Cc1c(/N=C/c2cccnc2)sc2c1CCCC2 | inconclusive: 50.1 µM [inhibitor, partial curve, poor fit] |  |
| O=C(c1ccc(Cl)nc1)N1CCC(c2nn(Cc3ccccc3)c(=O)[nH]2)CC1 | inconclusive: 35.5 µM [inhibitor, single point] |  |
| CC(C)c1nnc(NC(=O)C2CC(=O)N(c3n[nH]c4cc(Br)ccc34)C2)s1 (stereo not drawn) | inconclusive: 8.91 µM [inhibitor, full curve, poor fit] |  |
| O=C1CN(C(=O)c2ccc(S(=O)(=O)N3CCCCC3)cc2)C(c2ccc(F)cc2)c2cc(Br)ccc2N1 (stereo not drawn) |  | inactive: 0.616% |
| COc1ccc(-n2nc(C3CCN([S+](=O)([O-])c4cccc(C(F)(F)F)c4)CC3)[nH]c2=O)cc1 |  | inactive: 57.6% |
| CCCN(C)C(=O)c1c(-c2ccc(OC)cc2)noc1[C@H](C)O | inconclusive: 39.8 µM [inhibitor, partial curve, poor fit] |  |
| COC(=O)c1ccc2nc(-c3ccccc3)c(Cc3ccccc3C(F)(F)F)n2c1 |  | inactive: 0% |
| CC1=C(c2ccc(C)c(C)c2)S(=O)(=O)NC1=NCC(=O)NCc1ccccc1C | inconclusive: 50.1 µM [inhibitor, partial curve, poor fit] |  |
| c1ccc(CCCN2CCN(c3ccccc3)CC2)cc1 | inconclusive: 39.8 µM [inhibitor, partial curve, poor fit] |  |
| CC(=O)Nc1scc(C)c1-c1nc2ccccc2s1 | inconclusive: 112 µM [inhibitor, single point] |  |
| O=C(c1ccc(F)cc1)N1CCN(Cc2c[nH]c3ccccc23)CC1 | inconclusive: 8.91 µM [inhibitor, partial curve, poor fit] |  |
